Laboratory results taken from publication PMC11840735.
No constants are given. Whether binding was seen depends on the method and setting. In cells and extracts the contact can be indirect. Some results given as binding are weak or reduced against the parent protein; the word gives no strength.

Protein sequences, listed by entry. Tags and fused reporters are not part of them.
UniProt Q6P6C2: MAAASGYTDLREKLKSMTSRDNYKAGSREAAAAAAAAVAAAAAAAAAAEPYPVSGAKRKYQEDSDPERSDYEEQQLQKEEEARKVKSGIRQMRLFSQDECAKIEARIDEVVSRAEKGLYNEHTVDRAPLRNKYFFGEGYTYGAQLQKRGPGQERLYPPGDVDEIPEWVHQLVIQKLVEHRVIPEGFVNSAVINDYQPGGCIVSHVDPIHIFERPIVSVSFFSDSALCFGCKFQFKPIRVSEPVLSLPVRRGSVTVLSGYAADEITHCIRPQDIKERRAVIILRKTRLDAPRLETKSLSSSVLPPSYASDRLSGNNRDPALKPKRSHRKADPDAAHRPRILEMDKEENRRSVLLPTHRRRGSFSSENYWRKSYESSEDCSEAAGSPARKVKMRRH
UniProt Q9P289: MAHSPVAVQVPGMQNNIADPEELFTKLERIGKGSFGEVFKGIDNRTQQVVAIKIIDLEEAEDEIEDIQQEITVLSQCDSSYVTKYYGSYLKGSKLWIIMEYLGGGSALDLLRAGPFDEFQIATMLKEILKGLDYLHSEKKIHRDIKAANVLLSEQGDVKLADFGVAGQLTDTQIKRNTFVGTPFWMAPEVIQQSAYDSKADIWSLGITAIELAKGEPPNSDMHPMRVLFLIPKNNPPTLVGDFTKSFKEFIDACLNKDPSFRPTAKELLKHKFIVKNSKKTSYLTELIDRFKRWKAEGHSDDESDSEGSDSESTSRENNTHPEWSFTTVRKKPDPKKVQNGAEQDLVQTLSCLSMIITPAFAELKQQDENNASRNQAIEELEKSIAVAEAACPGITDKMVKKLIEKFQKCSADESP
UniProt Q9P2P5: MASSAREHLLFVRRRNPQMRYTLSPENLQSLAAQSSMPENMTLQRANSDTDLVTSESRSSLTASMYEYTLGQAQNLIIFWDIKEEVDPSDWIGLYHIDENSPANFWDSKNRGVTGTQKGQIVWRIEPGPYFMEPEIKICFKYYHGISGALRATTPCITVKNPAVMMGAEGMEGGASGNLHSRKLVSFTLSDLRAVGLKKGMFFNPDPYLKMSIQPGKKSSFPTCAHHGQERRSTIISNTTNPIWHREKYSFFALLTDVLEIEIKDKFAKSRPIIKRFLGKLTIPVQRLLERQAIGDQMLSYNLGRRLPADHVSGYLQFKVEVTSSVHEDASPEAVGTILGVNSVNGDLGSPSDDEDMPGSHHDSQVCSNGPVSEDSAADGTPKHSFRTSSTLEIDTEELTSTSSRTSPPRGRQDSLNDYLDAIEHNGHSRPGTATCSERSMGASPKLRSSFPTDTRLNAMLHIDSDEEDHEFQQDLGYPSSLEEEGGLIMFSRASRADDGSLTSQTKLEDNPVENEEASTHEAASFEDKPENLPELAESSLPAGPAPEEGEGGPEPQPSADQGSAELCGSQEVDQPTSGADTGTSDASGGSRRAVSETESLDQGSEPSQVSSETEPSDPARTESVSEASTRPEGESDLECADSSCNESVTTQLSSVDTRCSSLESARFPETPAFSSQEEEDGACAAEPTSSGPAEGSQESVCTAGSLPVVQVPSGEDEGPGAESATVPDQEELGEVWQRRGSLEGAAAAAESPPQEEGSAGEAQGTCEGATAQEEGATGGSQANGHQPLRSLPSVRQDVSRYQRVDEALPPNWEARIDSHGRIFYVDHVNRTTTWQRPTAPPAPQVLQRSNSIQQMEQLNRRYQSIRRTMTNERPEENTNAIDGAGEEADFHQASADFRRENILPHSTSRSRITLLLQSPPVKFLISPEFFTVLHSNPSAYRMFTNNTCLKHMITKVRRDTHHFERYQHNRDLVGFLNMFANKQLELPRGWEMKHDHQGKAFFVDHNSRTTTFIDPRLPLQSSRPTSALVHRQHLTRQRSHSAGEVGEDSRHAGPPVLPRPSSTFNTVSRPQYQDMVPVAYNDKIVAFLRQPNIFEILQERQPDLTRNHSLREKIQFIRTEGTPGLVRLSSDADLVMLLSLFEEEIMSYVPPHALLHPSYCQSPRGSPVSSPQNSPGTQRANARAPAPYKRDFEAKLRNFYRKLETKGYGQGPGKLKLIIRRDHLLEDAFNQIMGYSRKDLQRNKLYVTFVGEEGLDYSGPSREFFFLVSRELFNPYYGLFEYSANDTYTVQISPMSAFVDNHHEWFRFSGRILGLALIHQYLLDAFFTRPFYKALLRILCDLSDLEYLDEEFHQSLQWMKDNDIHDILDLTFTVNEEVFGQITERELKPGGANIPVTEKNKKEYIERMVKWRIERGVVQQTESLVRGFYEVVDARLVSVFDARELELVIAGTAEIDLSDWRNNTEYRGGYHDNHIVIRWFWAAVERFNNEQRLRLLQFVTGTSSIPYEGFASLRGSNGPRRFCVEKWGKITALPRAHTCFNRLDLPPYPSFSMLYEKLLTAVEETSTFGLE

Key:
[1] = biological target: endogenous ALKBH5 of GSCs (human (endogenous in patient-derived GSCs)) (UniProt Q6P6C2); test: co-IP; endogenous proteins in GSC 83 and 456 lysates (IP lysis buffer; antibody and protein G agarose beads overnight), IgG control; cells with or without IR, sh-MST4, or inhibitors of ATM, ATR and DNA-PK
[2] = biological target: ALKBH5 WT in HEK293T cells (human) (UniProt Q6P6C2); test: co-IP; IP-IB from lysates of HEK293T cells with the indicated plasmids

| Substance | binding [1] | binding [2] |
| --- | --- | --- |
| endogenous MST4 of GSCs (from UniProt Q9P289 1-416) (enzyme) | binds | – |
| HECW2 in HEK293T cells (from UniProt Q9P2P5 1-1572) (enzyme) | – | binds |
